Source: the supplement of paper PMC7661543
Differences between knockout arms are mostly noise.

Tested on: BT-20
Test: relative cell number vs DMSO control (72 h) (% of DMSO); higher = less growth inhibition (more cells)
Description: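 QMAP-Seq: a pool of 5 breast cancer cell lines (ZR-75-1, SKBR3, HCC-38, MDA-MB-231, BT-20), each carrying 12 doxycycline-inducible Cas9 sgRNA perturbations (11 knockouts plus non-targeting sgNT), was treated with compounds for 72 h at four 10-fold doses (10 nM-10 uM or 1 nM-1 uM range). Barcodes were amplified and sequenced, and cell number was interpolated from 293T spike-in standard curves. The result is expressed as % of the median of DMSO wells. Two biological replicates.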

COc1cc2c(cc1-c1c(C)noc1C)ncc1[nH]c(=O)n([C@H](C)c3ccccn3)c12 [IBET151]
Conditions | relative cell number
sgRNA knockout: sgATF3, 10 nM | 83.7
sgRNA knockout: sgATF3, 100 nM | 86.5
sgRNA knockout: sgATF3, 1000 nM | 71.7
sgRNA knockout: sgATF3, 10000 nM | 61.3
sgRNA knockout: sgATF4, 10 nM | 84.1
sgRNA knockout: sgATF4, 100 nM | 98.8
sgRNA knockout: sgATF4, 1000 nM | 67.8
sgRNA knockout: sgATF4, 10000 nM | 53.1
sgRNA knockout: sgATF6, 10 nM | 95.69
sgRNA knockout: sgATF6, 100 nM | 88.5
sgRNA knockout: sgATF6, 1000 nM | 70.2
sgRNA knockout: sgATF6, 10000 nM | 56.4
sgRNA knockout: sgATG7, 10 nM | 84.2
sgRNA knockout: sgATG7, 100 nM | 85.2
sgRNA knockout: sgATG7, 1000 nM | 74.1
sgRNA knockout: sgATG7, 10000 nM | 60.4
sgRNA knockout: sgERN1, 10 nM | 77.3
sgRNA knockout: sgERN1, 100 nM | 74.5
sgRNA knockout: sgERN1, 1000 nM | 72.5
sgRNA knockout: sgERN1, 10000 nM | 57.3
sgRNA knockout: sgHSF1, 10 nM | 91.2
sgRNA knockout: sgHSF1, 100 nM | 81.2
sgRNA knockout: sgHSF1, 1000 nM | 74.1
sgRNA knockout: sgHSF1, 10000 nM | 63
sgRNA knockout: sgHSF2, 10 nM | 69.3
sgRNA knockout: sgHSF2, 100 nM | 93
sgRNA knockout: sgHSF2, 1000 nM | 63.1
sgRNA knockout: sgHSF2, 10000 nM | 53.9
sgRNA knockout: sgKEAP1, 10 nM | 91.6
sgRNA knockout: sgKEAP1, 100 nM | 101
sgRNA knockout: sgKEAP1, 1000 nM | 65
sgRNA knockout: sgKEAP1, 10000 nM | 57.92
sgRNA knockout: sgNFE2L2, 10 nM | 88.7
sgRNA knockout: sgNFE2L2, 100 nM | 82.29
sgRNA knockout: sgNFE2L2, 1000 nM | 74.7
sgRNA knockout: sgNFE2L2, 10000 nM | 68.3
sgRNA knockout: sgSLC35F2, 10 nM | 90.1
sgRNA knockout: sgSLC35F2, 100 nM | 78.3
sgRNA knockout: sgSLC35F2, 1000 nM | 72.8
sgRNA knockout: sgSLC35F2, 10000 nM | 60.6
sgRNA knockout: sgXBP1, 10 nM | 99.6
sgRNA knockout: sgXBP1, 100 nM | 89.5
sgRNA knockout: sgXBP1, 1000 nM | 69.7
sgRNA knockout: sgXBP1, 10000 nM | 62.5

O=C(/C=C/c1ccc(O)cc1)c1ccc(O)cc1O [Isoliquiritigenin]
Conditions | relative cell number
sgRNA knockout: sgATF3, 10 nM | 86.2
sgRNA knockout: sgATF3, 100 nM | 103
sgRNA knockout: sgATF3, 1000 nM | 93.1
sgRNA knockout: sgATF3, 10000 nM | 93.2
sgRNA knockout: sgATF4, 10 nM | 96
sgRNA knockout: sgATF4, 100 nM | 108
sgRNA knockout: sgATF4, 1000 nM | 101
sgRNA knockout: sgATF4, 10000 nM | 101
sgRNA knockout: sgATF6, 10 nM | 86.3
sgRNA knockout: sgATF6, 100 nM | 96.8
sgRNA knockout: sgATF6, 1000 nM | 110
sgRNA knockout: sgATF6, 10000 nM | 93.4
sgRNA knockout: sgATG7, 10 nM | 86.9
sgRNA knockout: sgATG7, 100 nM | 121
sgRNA knockout: sgATG7, 1000 nM | 99.1
sgRNA knockout: sgATG7, 10000 nM | 100
sgRNA knockout: sgERN1, 10 nM | 99.7
sgRNA knockout: sgERN1, 100 nM | 101
sgRNA knockout: sgERN1, 1000 nM | 94
sgRNA knockout: sgERN1, 10000 nM | 102
sgRNA knockout: sgHSF1, 10 nM | 81.7
sgRNA knockout: sgHSF1, 100 nM | 93.6
sgRNA knockout: sgHSF1, 1000 nM | 93.7
sgRNA knockout: sgHSF1, 10000 nM | 91.3
sgRNA knockout: sgHSF2, 10 nM | 93.5
sgRNA knockout: sgHSF2, 100 nM | 90
sgRNA knockout: sgHSF2, 1000 nM | 102
sgRNA knockout: sgHSF2, 10000 nM | 108
sgRNA knockout: sgKEAP1, 10 nM | 94.6
sgRNA knockout: sgKEAP1, 100 nM | 110
sgRNA knockout: sgKEAP1, 1000 nM | 81
sgRNA knockout: sgKEAP1, 10000 nM | 92.5
sgRNA knockout: sgNFE2L2, 10 nM | 99.9
sgRNA knockout: sgNFE2L2, 100 nM | 99.9
sgRNA knockout: sgNFE2L2, 1000 nM | 89.2
sgRNA knockout: sgNFE2L2, 10000 nM | 96.2
sgRNA knockout: sgSLC35F2, 10 nM | 114
sgRNA knockout: sgSLC35F2, 100 nM | 94.3
sgRNA knockout: sgSLC35F2, 1000 nM | 99.9
sgRNA knockout: sgSLC35F2, 10000 nM | 106
sgRNA knockout: sgXBP1, 10 nM | 107
sgRNA knockout: sgXBP1, 100 nM | 114
sgRNA knockout: sgXBP1, 1000 nM | 99.5
sgRNA knockout: sgXBP1, 10000 nM | 113

COc1cc2nccc(Oc3ccc(NC(=O)NC4CC4)c(Cl)c3)c2cc1C(N)=O [Lenvatinib]
Conditions | relative cell number
sgRNA knockout: sgATF3, 10 nM | 96.5
sgRNA knockout: sgATF3, 100 nM | 109
sgRNA knockout: sgATF3, 1000 nM | 109
sgRNA knockout: sgATF3, 10000 nM | 108
sgRNA knockout: sgATF4, 10 nM | 98.1
sgRNA knockout: sgATF4, 100 nM | 101.8
sgRNA knockout: sgATF4, 1000 nM | 114
sgRNA knockout: sgATF4, 10000 nM | 104
sgRNA knockout: sgATF6, 10 nM | 94.3
sgRNA knockout: sgATF6, 100 nM | 88.6
sgRNA knockout: sgATF6, 1000 nM | 101
sgRNA knockout: sgATF6, 10000 nM | 112
sgRNA knockout: sgATG7, 10 nM | 98.1
sgRNA knockout: sgATG7, 100 nM | 114
sgRNA knockout: sgATG7, 1000 nM | 101
sgRNA knockout: sgATG7, 10000 nM | 116
sgRNA knockout: sgERN1, 10 nM | 93.4
sgRNA knockout: sgERN1, 100 nM | 99
sgRNA knockout: sgERN1, 1000 nM | 104
sgRNA knockout: sgERN1, 10000 nM | 104
sgRNA knockout: sgHSF1, 10 nM | 83.8
sgRNA knockout: sgHSF1, 100 nM | 93.1
sgRNA knockout: sgHSF1, 1000 nM | 112
sgRNA knockout: sgHSF1, 10000 nM | 110
sgRNA knockout: sgHSF2, 10 nM | 93.5
sgRNA knockout: sgHSF2, 100 nM | 109
sgRNA knockout: sgHSF2, 1000 nM | 112.1
sgRNA knockout: sgHSF2, 10000 nM | 126
sgRNA knockout: sgKEAP1, 10 nM | 91
sgRNA knockout: sgKEAP1, 100 nM | 91.7
sgRNA knockout: sgKEAP1, 1000 nM | 110.42
sgRNA knockout: sgKEAP1, 10000 nM | 101
sgRNA knockout: sgNFE2L2, 10 nM | 101
sgRNA knockout: sgNFE2L2, 100 nM | 108
sgRNA knockout: sgNFE2L2, 1000 nM | 120
sgRNA knockout: sgNFE2L2, 10000 nM | 116
sgRNA knockout: sgSLC35F2, 10 nM | 102
sgRNA knockout: sgSLC35F2, 100 nM | 113
sgRNA knockout: sgSLC35F2, 1000 nM | 114
sgRNA knockout: sgSLC35F2, 10000 nM | 114
sgRNA knockout: sgXBP1, 10 nM | 103
sgRNA knockout: sgXBP1, 100 nM | 85.8
sgRNA knockout: sgXBP1, 1000 nM | 105
sgRNA knockout: sgXBP1, 10000 nM | 114
